The target in this experiment is biotinylated LRP1 Cluster III (human) (UniProt Q07954). Put plainly: BLI, biotinylated LRP1 cluster III immobilised.

Amino acid sequences for entries named in this document (tags omitted). A change or cut given only in a name is not applied to a line headed by its entry.
UniProt Q07954: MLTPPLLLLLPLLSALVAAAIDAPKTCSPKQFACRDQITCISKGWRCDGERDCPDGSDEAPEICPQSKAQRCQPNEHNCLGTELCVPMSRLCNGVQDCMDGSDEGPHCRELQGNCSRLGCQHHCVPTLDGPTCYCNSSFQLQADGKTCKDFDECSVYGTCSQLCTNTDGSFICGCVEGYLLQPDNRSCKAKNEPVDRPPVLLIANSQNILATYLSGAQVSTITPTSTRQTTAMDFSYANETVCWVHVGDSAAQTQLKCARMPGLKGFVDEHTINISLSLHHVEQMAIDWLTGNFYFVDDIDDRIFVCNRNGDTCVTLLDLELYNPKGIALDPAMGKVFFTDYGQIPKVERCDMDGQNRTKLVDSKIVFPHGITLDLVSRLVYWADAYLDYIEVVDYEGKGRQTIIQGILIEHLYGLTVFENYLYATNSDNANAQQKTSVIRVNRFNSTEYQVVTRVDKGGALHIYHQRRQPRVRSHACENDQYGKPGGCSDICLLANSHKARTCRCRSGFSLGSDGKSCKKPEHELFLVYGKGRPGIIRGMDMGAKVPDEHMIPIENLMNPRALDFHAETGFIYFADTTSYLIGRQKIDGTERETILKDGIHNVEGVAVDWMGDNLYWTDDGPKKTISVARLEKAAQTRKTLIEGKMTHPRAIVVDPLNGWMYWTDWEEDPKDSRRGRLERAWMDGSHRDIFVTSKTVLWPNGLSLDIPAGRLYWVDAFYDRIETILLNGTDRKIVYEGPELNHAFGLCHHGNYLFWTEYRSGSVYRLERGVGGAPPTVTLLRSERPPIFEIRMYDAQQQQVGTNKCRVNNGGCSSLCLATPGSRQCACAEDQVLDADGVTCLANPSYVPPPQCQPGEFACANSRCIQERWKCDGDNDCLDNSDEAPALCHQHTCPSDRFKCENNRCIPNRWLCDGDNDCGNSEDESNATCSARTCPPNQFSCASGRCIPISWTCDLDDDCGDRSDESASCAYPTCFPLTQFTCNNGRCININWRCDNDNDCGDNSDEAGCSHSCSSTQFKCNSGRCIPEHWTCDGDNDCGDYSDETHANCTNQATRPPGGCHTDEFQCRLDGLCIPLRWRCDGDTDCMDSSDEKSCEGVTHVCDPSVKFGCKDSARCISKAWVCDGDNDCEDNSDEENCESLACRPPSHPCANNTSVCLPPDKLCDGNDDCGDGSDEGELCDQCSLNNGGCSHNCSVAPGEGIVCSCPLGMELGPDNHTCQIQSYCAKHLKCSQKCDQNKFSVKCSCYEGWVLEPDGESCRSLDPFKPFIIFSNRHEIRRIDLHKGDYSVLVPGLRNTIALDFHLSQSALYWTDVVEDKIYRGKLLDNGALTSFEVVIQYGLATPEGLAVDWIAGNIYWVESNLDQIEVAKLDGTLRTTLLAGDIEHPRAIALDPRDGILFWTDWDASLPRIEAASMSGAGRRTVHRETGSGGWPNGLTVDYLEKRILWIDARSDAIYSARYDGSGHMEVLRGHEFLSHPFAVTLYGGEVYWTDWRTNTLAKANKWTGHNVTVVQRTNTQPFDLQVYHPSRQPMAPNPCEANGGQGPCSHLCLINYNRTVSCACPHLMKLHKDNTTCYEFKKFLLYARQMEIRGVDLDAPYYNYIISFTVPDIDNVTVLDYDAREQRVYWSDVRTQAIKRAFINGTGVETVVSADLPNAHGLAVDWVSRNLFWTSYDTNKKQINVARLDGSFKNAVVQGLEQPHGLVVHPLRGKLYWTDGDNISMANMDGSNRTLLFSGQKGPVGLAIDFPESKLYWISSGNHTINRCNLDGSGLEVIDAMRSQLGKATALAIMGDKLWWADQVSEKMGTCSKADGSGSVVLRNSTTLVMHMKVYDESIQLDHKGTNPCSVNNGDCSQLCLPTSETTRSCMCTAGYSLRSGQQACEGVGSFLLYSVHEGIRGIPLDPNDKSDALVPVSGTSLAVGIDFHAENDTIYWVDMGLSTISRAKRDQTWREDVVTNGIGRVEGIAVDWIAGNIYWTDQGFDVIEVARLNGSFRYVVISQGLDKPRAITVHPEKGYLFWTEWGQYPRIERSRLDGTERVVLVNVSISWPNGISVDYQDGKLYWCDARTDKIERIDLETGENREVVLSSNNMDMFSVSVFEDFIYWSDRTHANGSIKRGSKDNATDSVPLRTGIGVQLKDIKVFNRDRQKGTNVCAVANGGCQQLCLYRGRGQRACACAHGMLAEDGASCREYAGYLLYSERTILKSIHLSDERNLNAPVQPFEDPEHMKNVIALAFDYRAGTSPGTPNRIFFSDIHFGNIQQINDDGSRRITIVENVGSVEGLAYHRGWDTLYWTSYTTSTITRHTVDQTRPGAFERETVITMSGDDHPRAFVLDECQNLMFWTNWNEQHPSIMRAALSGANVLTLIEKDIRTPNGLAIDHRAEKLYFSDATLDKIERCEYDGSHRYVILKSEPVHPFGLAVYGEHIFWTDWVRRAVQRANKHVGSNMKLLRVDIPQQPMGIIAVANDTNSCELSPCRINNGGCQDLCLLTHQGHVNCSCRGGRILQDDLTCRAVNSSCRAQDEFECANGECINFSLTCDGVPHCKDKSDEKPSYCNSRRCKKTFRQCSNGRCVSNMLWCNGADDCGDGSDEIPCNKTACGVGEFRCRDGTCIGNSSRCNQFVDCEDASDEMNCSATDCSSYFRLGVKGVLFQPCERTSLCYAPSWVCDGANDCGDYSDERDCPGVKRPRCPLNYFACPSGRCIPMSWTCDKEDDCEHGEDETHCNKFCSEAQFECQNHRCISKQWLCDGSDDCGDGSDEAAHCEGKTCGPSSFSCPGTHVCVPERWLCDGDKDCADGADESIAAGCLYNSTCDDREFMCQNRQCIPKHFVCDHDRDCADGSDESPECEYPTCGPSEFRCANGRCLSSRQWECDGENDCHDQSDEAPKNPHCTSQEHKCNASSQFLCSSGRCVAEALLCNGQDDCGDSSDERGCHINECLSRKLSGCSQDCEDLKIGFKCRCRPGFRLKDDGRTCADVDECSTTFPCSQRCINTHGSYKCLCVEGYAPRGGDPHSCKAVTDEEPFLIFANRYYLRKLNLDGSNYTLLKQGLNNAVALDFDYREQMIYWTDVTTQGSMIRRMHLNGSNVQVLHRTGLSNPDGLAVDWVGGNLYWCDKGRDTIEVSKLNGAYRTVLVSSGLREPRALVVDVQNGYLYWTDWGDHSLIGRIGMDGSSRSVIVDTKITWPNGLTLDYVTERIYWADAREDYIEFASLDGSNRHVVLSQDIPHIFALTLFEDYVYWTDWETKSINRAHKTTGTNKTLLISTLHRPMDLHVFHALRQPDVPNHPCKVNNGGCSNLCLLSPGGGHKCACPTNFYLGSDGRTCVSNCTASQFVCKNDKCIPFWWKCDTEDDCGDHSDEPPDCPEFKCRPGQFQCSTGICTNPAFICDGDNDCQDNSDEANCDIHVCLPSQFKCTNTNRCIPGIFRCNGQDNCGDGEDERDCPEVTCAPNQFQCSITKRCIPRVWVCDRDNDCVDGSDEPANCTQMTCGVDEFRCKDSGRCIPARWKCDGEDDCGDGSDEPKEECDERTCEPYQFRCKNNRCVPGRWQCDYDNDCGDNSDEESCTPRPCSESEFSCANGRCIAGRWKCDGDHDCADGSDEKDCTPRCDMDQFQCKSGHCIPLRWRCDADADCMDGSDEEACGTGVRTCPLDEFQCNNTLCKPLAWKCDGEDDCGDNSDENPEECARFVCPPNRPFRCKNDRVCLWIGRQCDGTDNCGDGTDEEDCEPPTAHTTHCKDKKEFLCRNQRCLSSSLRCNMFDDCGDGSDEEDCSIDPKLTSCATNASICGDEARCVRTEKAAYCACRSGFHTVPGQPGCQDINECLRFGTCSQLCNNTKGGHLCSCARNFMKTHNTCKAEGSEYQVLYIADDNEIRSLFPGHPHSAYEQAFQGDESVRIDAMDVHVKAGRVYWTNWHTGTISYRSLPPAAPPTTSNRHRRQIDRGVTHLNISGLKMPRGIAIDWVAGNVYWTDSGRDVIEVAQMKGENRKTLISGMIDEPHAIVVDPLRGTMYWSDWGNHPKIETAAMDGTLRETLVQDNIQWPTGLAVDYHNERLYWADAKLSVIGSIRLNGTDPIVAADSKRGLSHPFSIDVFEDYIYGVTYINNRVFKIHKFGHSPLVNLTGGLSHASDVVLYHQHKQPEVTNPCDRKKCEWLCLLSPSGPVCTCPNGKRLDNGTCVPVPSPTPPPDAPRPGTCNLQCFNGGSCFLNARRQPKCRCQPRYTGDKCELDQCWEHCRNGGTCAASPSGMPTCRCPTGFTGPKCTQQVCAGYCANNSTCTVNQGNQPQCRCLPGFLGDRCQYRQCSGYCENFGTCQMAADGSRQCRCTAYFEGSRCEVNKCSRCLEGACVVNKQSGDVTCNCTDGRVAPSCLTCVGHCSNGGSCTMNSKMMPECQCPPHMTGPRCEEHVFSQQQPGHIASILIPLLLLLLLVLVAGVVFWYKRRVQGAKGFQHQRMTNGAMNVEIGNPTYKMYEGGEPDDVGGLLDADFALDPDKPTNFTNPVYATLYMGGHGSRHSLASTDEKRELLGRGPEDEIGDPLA
UniProt P02790: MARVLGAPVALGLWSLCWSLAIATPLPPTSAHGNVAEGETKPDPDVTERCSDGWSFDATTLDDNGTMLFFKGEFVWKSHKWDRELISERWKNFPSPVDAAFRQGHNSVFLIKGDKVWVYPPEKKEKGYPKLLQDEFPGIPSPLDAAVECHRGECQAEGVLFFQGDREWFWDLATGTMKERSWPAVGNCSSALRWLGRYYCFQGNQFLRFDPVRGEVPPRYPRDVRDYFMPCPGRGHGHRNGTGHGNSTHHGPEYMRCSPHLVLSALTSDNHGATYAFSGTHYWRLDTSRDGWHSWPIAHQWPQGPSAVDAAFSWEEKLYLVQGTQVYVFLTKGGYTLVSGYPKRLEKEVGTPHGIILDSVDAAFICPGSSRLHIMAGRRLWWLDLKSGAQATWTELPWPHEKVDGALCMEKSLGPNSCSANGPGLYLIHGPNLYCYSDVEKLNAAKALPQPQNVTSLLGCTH

Our source for the binding values is patent US20250304655A1.

No constants are given. Whether binding was seen depends on the method and setting. Some entries that bind do so weakly or less than the wild type.

With “HuHemopexin-HuHaptoglobin2FS(148-406)-8His (from UniProt P02790 24-462; P00738 162-406)”, the binding entry is “binds”.

For “heme:Hx-Hp complex (from UniProt P02790 24-462; P00738 162-406)”, the binding entry is “binds”.
